Data taken from US11672774B2, “Methods of treating squamous cell carcinomas with farnesyltransferase inhibitors” (Kura Oncology, Inc., priority 2019, dated 2023).
Entries after “also recorded” stand apart in the source; their conditions may differ. At least one structure is not confirmed: it was looked up by name or label, or the drawing left a doubt.

What was measured:
[1] = tested on: HNSCC PDX Model HN3461; experiment: tumor growth in HNSCC PDX model HN3461; type: in vivo, BALB/c nude or Nu/nu mice; details: PDX HN3461, H-Ras 2.1x median, H/K+N 2.4; tipifarnib 80 mg/kg PO BID, cisplatin 3 mg/kg IP QW; vs vehicle
Protocol: Female BALB/c nude or Nu/nu mice (6-8 weeks) were inoculated subcutaneously on the right flank with primary human tumor model fragment (2-3 mm in diameter) for tumor development. When average tumor size reaches about 250-350 mm^3, mice were randomly grouped into dosing groups. Animals were dosed with tipifarnib vehicle (20% w/v Hydroxypropyl-β-cyclodextrin) or tipifarnib at a dose of 80 mg/kg BID PO for 3-4 weeks and tumor dimensions were measured twice per week.
The ability of tipifarnib to inhibit tumor growth was determined using selected patient-derived xenograft (PDX) models of HNSCC. The selected models expressed different levels of H-Ras or had different high ratios of H-Ras expression to the combined expression of K-Ras and N-Ras (“H/K+N ratio”). The expression levels of H-Ras, K-Ras and N-Ras in these PDX models were determined by RNAseq.
After tumor development, mice were administered either vehicle, tipifarnib (80 mg/kg PO BID), a second active agent, or a combination of tipifarnib and a second active agent.

[2] = tested on: HNSCC PDX Model HN5123; experiment: tumor growth in HNSCC PDX model HN5123; type: in vivo, BALB/c nude or Nu/nu mice; details: PDX HN5123, H-Ras 1.6x median, H/K+N 2.1; tipifarnib 80 mg/kg BID PO 3-4 weeks; vs vehicle

What does the source list for Cn1cncc1[C@@](N)(c1ccc(Cl)cc1)c1ccc2c(c1)c(-c1cccc(Cl)c1)cc(=O)n2C [tipifarnib]?
tumor growth [1]: significantly inhibited tumor growth; also recorded: had activity; tumor growth [2]: modest inhibition in tumor growth; also recorded: partial inhibition in tumor growth; also recorded: efficacy was significantly less pronounced
